Results published in patent US9282738B2, “Antimicrobial compositions and methods of use thereof” (WISCONSIN ALUMNI RESEARCH FOUNDATION, priority 2011, dated 2016).

Test system: E. coli ΔtolC
Assay: Cephalexin-induced cell lysis and filamentation (optical density)
Assay type: cell-based, Escherichia coli
Conditions: 10 μg/mL cephalexin alone, FIG. 9B

CC1=C(C(=O)O)N2C(=O)[C@@H](NC(=O)[C@H](N)c3ccccc3)[C@H]2SC1 [cephalexin, reference compound]
cell filamentation and lysis (optical density): cells became filamented and underwent lysis
